Data from PubChem BioAssay AID2685 (National Center for Advancing Translational Sciences (NCATS), 2010).
The list shows a part of the results. Shown are side measurements of this screen, not its main read-out; they come without a call. Most of these compounds were active or inconclusive in the main read-out, so they are no random draw. Potencies come from curve fits of mixed quality, noted in brackets.

Assay: qHTS Assay for Lipid Storage Modulators in Drosophila S3 Cells;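 on cell number change: cells counted by Cell Tracker Red CMTPX staining in the red channel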
Details: BODIPY lipid droplet fluorescence, 18-24 h; for cell number change: measured here: cell count max response, cells fed with added oleic acid
Outline: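 Drosophila S3 cells got compounds at several concentrations plus oleic acid (400 uM solution). Laser-scanning cytometry with 488 nm excitation read lipid droplets at 500-530 nm and cells at 575-640 nm. Percent activity was relative to 20 uM Triacsin C.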

[1] = measured here: cell number channel AC50, cells fed with added oleic acid
[2] = measured here: lipid fluorescence (Fed channel) AC50, cells fed with added oleic acid

Row | SMILES | AC50 [1] | cell number change | AC50 [2]
1 | COc1ccc(OC)c(C2=NOC(C(=O)Nc3cccnc3)C2)c1 (stereo not drawn) | 6.51 µM [rising, partial curve] |  | 
2 | COc1cccc(C(=O)OCC(=O)Nc2sc3c(c2C(N)=O)CCC3)c1O | 7.31 µM [falling, partial curve] | -32% | 
3 | CCOC(=O)CN1NC2(CCCCC2)NC1=S | 3.66 µM [falling, full curve] | -46.9% | 4.11 µM [falling, full curve]
4 | Cc1cccc(CCNS(=O)(=O)c2ccc3c(c2)n(C)c(=O)c(=O)n3C)c1 |  | 29% | 5.17 µM [rising, full curve]
5 | CCCc1cc2c(=O)c(-c3ccccn3)coc2cc1OC | 0.92 µM [rising, partial curve] | 23.8% | 2.59 µM [rising, partial curve]
6 | COc1cc(OC)cc(OC(=O)C2CCN(C(=O)c3ccc(Cl)cc3)CC2)c1 | 29.1 µM [falling, single point] | -39.3% | 
7 | CC(NC(=O)C(C)(C)C)C(c1cccs1)N1CCOCC1 (stereo not drawn) |  | 0.819% | 0.651 µM [falling, full curve]
8 | COc1ccc(-c2cc(C(F)(F)F)nc(SCC(=O)N(C)Cc3cnn(C)c3C)n2)cc1OC |  | 3.64% | 
9 | CCOC(=O)C1C(=O)NC(c2ccccc2)=NC1c1ccc(C(C)C)cc1 (stereo not drawn) | 25.9 µM [falling, single point] | -43% | 4.61 µM [falling, single point]
10 | CCOc1ccc(NC2=C(OC)C(=O)c3ccccc3C2=O)cc1 | 32.6 µM [falling, partial curve] | -85.6% | 32.6 µM [falling, partial curve]
11 | Cc1cc(C)n2nc(SCC(=O)N3CCN(c4ccc(F)cc4)CC3)nc2n1 |  | -15.2% | 0.058 µM [falling, full curve, poor fit]
12 | COc1ccc(NC(=O)C2C(c3ccccc3)C2(Cl)Cl)c(OC)c1 (stereo not drawn) |  | 3.67% | 
13 | COC(=O)CCN(C1CCCCC1)S(=O)(=O)c1ccc(S(=O)(=O)NC2CCCCC2)cc1 |  |  | 0.116 µM [falling, full curve, poor fit]
14 | O=C(Cc1ccccc1)NCCS(=O)c1ccc(Cl)cc1 (stereo not drawn) |  | 22.8% | 
15 | COc1cc(OC)c(NC(=O)C2CCCN2C(=O)OCc2ccccc2)cc1Cl (stereo not drawn) |  | 29% | 14.6 µM [rising, partial curve]
16 | c1ccc(COn2c(-c3ccccc3)nc3c2CCc2nonc2-3)cc1 |  | 0.978% | 0.082 µM [rising, full curve, poor fit]
17 | CC(C)Oc1ccc(CCNC(=O)CC2C(=O)NCCN2C)cc1 (stereo not drawn) |  | 13.9% | 0.103 µM [falling, full curve, poor fit]

2 entries from above, as tab-separated lines.
Row	SMILES	AC50 [1]	cell number change	AC50 [2]
1	COc1ccc(OC)c(C2=NOC(C(=O)Nc3cccnc3)C2)c1 (stereo not drawn)	6.51 µM [rising, partial curve]		
2	COc1cccc(C(=O)OCC(=O)Nc2sc3c(c2C(N)=O)CCC3)c1O	7.31 µM [falling, partial curve]	-32%	
